Test results taken from patent US20250223600.
A weaker result is weaker than the reference pair of the same experiment. The exact form of at least one protein or probe is not confirmed.

Chains of the proteins cited; added tags and fusions are not shown. A line that says so, or that is headed by a name, gives the form on record, which may keep a tag or linker.
Insulin receptor (INSR), extracellular domain on cells (Homo sapiens), one chain, as listed by the source, chain 2 of 2: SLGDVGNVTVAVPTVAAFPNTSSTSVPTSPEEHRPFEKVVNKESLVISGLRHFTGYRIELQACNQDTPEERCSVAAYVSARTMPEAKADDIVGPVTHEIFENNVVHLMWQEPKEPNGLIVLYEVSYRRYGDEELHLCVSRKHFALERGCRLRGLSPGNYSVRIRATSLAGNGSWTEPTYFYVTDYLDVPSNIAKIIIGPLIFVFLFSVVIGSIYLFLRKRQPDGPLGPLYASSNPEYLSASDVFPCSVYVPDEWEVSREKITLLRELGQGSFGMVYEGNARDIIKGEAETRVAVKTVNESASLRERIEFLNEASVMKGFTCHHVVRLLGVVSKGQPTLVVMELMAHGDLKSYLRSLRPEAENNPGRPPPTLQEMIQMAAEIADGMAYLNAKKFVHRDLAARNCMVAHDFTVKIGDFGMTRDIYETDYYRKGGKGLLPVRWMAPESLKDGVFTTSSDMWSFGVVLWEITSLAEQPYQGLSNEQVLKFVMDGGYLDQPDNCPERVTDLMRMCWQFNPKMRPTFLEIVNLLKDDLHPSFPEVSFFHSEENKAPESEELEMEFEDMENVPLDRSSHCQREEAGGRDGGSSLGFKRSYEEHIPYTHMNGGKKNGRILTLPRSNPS

Tested on: Insulin receptor (INSR), extracellular domain on cells (Homo sapiens)
Assay: activity in cells
Conditions: protein on the cell surface
[1] = as IR-A62 monomer in both arms, pY1150 similar to monomer, dimer not formed on native gel (p151), cell line per Example 2, folded or branched DNA, variant of IR-A62 ms monomer (A62-M), dose not given here
[2] = as IR-A62 monomer in both arms, pY1150 higher than monomer, folded or branched DNA, variant of IR-A62 ms monomer (A62-M), dose not given here
[3] = as IR-A62 monomer in both arms, T spacer 2'-OMe, pY1150 higher than monomer, single-stranded DNA, variant of IR-A62 ms monomer (A62-M), dose not given here
[4] = as IR-A62 monomer, unmodified TT + 20 nt linker, 3'-idT, 100 nM, single strand alone, pY1150 lower than LD1+LD2 dimer, single-stranded DNA, variant of IR-A62 ms monomer (A62-M)

CATTACGCATGAGTCTAGATCCGTTTTTCATTACGCATGAGTCTAGATCCGT [A62 SSD (HEG4)]
functional effect of the aptamer (as IR-A62 monomer in both arms, spacer 2'-OMe TT-(Spacer 18)4-TT, pY1150 higher than monomer, single-stranded DNA, variant of IR-A62 ms monomer (A62-M), dose not given here): active

CATTACGCATGAGTCTAGATCCGTTTGTGGCC / CATTACGCATGAGTCTAGATCCGTTTGGCCAC [A62 D-1+D-2 (6 bp)]
functional effect of the aptamer [1]: less active

CATTACGCATGAGTCTAGATCCGTTTTTCATTACGCATGAGTCTAGATCCGT [A62 SSD (HEG3)]
functional effect of the aptamer (as IR-A62 monomer in both arms, spacer 2'-OMe TT-(Spacer 18)3-TT, pY1150 higher than monomer, single-stranded DNA, variant of IR-A62 ms monomer (A62-M), dose not given here): active

CATTACGCATGAGTCTAGATCCGTTTATTACAGCTTGCTACACG / CATTACGCATGAGTCTAGATCCGTTTCGTGTAGCAAGCTGTAAT [A62 D-1+D-2 (18 bp)]
functional effect of the aptamer [2]: active

CATTACGCATGAGTCTAGATCCGTTTTTTTTTTTCATTACGCATGAGTCTAGATCCGT [A62 SSD (6T)]
functional effect of the aptamer [3]: active

CATTACGCATGAGTCTAGATCCGTTTTTCATTACGCATGAGTCTAGATCCGT [A62 SSD (HEG6)]
functional effect of the aptamer (as IR-A62 monomer in both arms, spacer 2'-OMe TT-(Spacer 18)6-TT, pY1150 higher than monomer, single-stranded DNA, variant of IR-A62 ms monomer (A62-M), dose not given here): active

CATTACGCATGAGTCTAGATCCGTTTTTTTTTTTTTCATTACGCATGAGTCTAGATCCGT [A62 SSD (8T)]
functional effect of the aptamer [3]: active

CATTACGCATGAGTCTAGATCCGTTTATTACAGC / CATTACGCATGAGTCTAGATCCGTTTGCTGTAAT [A62 D-1+D-2 (8 bp)]
functional effect of the aptamer [1]: less active

CATTACGCATGAGTCTAGATCCGTTTTTCGTGTAGCAAGCTGTAAT [IR-A62 ms-LD2]
functional effect of the aptamer [4]: less active

CATTACGCATGAGTCTAGATCCGTTTTTCATTACGCATGAGTCTAGATCCGT [A62 SSD (HEG5)]
functional effect of the aptamer (as IR-A62 monomer in both arms, spacer 2'-OMe TT-(Spacer 18)5-TT, pY1150 higher than monomer, single-stranded DNA, variant of IR-A62 ms monomer (A62-M), dose not given here): active

CATTACGCATGAGTCTAGATCCGTTTATTACAGCTTGC / CATTACGCATGAGTCTAGATCCGTTTGCAAGCTGTAAT [A62 D-1+D-2 (12 bp)]
functional effect of the aptamer (as IR-A62 monomer in both arms, 20-500 nM, pY1150, pAKT and glucose uptake higher than monomer, 100 nM dimer similar to 500 nM monomer, protein details: human IR expressed in L6 cells (hIR-L6), folded or branched DNA, variant of IR-A62 ms monomer (A62-M)): active | functional effect of the aptamer [2]: active

CATTACGCATGAGTCTAGATCCGTTTATTACAGCTTGCTACACGAA [IR-A62 ms-LD1]
functional effect of the aptamer [4]: less active

CATTACGCATGAGTCTAGATCCGTTTATTACAGCTTGCTACA / CATTACGCATGAGTCTAGATCCGTTTTGTAGCAAGCTGTAAT [A62 D-1+D-2 (16 bp)]
functional effect of the aptamer [2]: active

CATTACGCATGAGTCTAGATCCGTTTTTTTTTTTTTTTCATTACGCATGAGTCTAGATCCGT [A62 SSD (10T)]
functional effect of the aptamer [3]: active

CATTACGCATGAGTCTAGATCCGTTTTTTTTTTTTTTTTTTTTCATTACGCATGAGTCTAGATCCGT [A62 SSD (15T)]
functional effect of the aptamer [3]: active

CATTACGCATGAGTCTAGATCCGTTTATTACAGCTTGCTACACGAA / CATTACGCATGAGTCTAGATCCGTTTTTCGTGTAGCAAGCTGTAAT [A62-D (2'OMe)]
functional effect of the aptamer (as IR-A62 monomer in both arms, linkers all 2'-OMe, 3'-idT, pY1150, pY1150/Y1151 and pAKT similar to insulin, folded or branched DNA, variant of IR-A62 dimer LD1+LD2 (20 bp), dose not given here): active

CATTACGCATGAGTCTAGATCCGTTTATTACAGCTT / CATTACGCATGAGTCTAGATCCGTTTAAGCTGTAAT [A62 D-1+D-2 (10 bp)]
functional effect of the aptamer [2]: active

CATTACGCATGAGTCTAGATCCGTTTATTACAGCTTGCTA / CATTACGCATGAGTCTAGATCCGTTTTAGCAAGCTGTAAT [A62 D-1+D-2 (14 bp)]
functional effect of the aptamer [2]: active

CATTACGCATGAGTCTAGATCCGTTTTTTTTTCATTACGCATGAGTCTAGATCCGT [A62 SSD (4T)]
functional effect of the aptamer (as IR-A62 monomer in both arms, T spacer 2'-OMe, pY1150 higher than monomer, cell line per Example 2, single-stranded DNA, variant of IR-A62 ms monomer (A62-M), dose not given …): active

CATTACGCATGAGTCTAGATCCGTTTTTCATTACGCATGAGTCTAGATCCGT [A62 SSD (HEG2)]
functional effect of the aptamer (as IR-A62 monomer in both arms, spacer 2'-OMe TT-(Spacer 18)2-TT, pY1150 higher than monomer, single-stranded DNA, variant of IR-A62 ms monomer (A62-M), dose not given here): active

CATTACGCATGAGTCTAGATCCGTTTATTACAGCTTGCTACACGAA / CATTACGCATGAGTCTAGATCCGTTTTTCGTGTAGCAAGCTGTAAT [IR-A62 dimer LD1+LD2 (20 bp)]
functional effect of the aptamer (as IR-A62 monomer in both aptamer arms, 100 nM in Krebs-Ringer HEPES, pY1150 significantly above monomer, also Y960, Y1146, Y1151, Y1316, Y1322, IRS Y896 and AKT, also Ex. 6-7, folded or branched DNA, variant of IR-A62 ms monomer (A62-M)): active

CATTACGCATGAGTCTAGATCCGTTTATTACAGCTTGCTACACGAA [A62-LD1 (2'OMe)]
functional effect of the aptamer (as IR-A62 monomer, linker all 2'-OMe, 3'-idT, no or very low pY1150, pY1150/Y1151, pAKT alone, single-stranded DNA, variant of IR-A62 ms-LD1, dose not given here): less active

CATTACGCATGAGTCTAGATCCGTTTTTCATTACGCATGAGTCTAGATCCGT [A62 SSD (HEG1)]
functional effect of the aptamer (as IR-A62 monomer in both arms, spacer 2'-OMe TT-(Spacer 18)1-TT, pY1150 higher than monomer, single-stranded DNA, variant of IR-A62 ms monomer (A62-M), dose not given here): active
